These are yes or no findings as the source states them, for the method shown. Binding seen in cells or lysates may run through a third protein. Some entries that bind do so weakly or less than the wild type. Where a sequence is shown, tags or fusion partners need not be part of it.
Legend:
[1] = biological target: endogenous AIF (apoptosis-inducing factor) in HeLa cell lysates (human) (UniProt O95831); assay: GST pull-down on glutathione beads
[2] = biological target: endogenous AIF (apoptosis-inducing factor) in HeLa cell lysates (human) (UniProt O95831); assay: GST pull-down from HeLa cell lysate, western blot

Chains of the proteins cited; added tags and fusions are not shown. Residues count along the entry.
UniProt O95831, residues 55-613: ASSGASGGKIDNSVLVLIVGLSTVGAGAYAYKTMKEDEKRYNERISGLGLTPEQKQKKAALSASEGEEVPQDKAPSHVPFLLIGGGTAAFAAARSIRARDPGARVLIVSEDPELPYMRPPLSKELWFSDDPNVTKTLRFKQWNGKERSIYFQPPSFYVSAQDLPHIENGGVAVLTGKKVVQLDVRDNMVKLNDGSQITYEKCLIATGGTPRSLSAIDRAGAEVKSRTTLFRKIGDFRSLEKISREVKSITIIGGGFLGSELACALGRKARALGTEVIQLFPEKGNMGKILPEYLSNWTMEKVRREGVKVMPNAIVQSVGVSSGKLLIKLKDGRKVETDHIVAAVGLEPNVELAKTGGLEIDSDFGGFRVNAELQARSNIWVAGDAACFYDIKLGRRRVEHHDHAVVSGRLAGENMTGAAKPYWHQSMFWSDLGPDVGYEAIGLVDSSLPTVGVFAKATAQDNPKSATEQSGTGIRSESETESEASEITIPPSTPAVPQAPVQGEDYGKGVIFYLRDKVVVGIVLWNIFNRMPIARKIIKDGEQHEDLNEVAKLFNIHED

Binder | binding [1] | binding [2]
wild type GST-MIF (protein, human, UniProt P14174 1-115, looked up, not shown: a dimerising Fc or GST) MPMFIVNTNVPRASVPDGFLSELTQQLAQATGKPPQYIAVHVVPDQLMAFGGSSEPCALCSLHSIGKIGGAQNRSYSKLLCGLLAERLRISPDRVYINYYDMNAANVGWNNSTFA | binds | binds
GST-MIF E22D (protein, not shown: a dimerising Fc or GST; small tags and cut ends) PMFIVNTNVPRASVPDGFLSDLTQQLAQATGKPPQYIAVHVVPDQLMAFGGSSEPCALCSLHSIGKIGGAQNRSYSKLLCGLLAERLRISPDRVYINYYDMNAANVGWNNSTFA | – | binds
GST-MIF E22Q (protein, not shown: a dimerising Fc or GST; small tags and cut ends) PMFIVNTNVPRASVPDGFLSQLTQQLAQATGKPPQYIAVHVVPDQLMAFGGSSEPCALCSLHSIGKIGGAQNRSYSKLLCGLLAERLRISPDRVYINYYDMNAANVGWNNSTFA | – | binds
GST-MIF C57A; C60A (protein, not shown: a dimerising Fc or GST; small tags and cut ends) PMFIVNTNVPRASVPDGFLSELTQQLAQATGKPPQYIAVHVVPDQLMAFGGSSEPAALASLHSIGKIGGAQNRSYSKLLCGLLAERLRISPDRVYINYYDMNAANVGWNNSTFA | – | binds

Reference: patent publication US20220249597A1, “MIF INHIBITORS AND METHODS OF USE THEREOF” (The Johns Hopkins University, priority 2016, published 2022)
